This is one part of the list.

Chains of the proteins cited; added tags and fusions are not shown. Lines headed by an entry give the natural chain unless they say otherwise; changes in a name come on top.
UniProt Q8WTV0: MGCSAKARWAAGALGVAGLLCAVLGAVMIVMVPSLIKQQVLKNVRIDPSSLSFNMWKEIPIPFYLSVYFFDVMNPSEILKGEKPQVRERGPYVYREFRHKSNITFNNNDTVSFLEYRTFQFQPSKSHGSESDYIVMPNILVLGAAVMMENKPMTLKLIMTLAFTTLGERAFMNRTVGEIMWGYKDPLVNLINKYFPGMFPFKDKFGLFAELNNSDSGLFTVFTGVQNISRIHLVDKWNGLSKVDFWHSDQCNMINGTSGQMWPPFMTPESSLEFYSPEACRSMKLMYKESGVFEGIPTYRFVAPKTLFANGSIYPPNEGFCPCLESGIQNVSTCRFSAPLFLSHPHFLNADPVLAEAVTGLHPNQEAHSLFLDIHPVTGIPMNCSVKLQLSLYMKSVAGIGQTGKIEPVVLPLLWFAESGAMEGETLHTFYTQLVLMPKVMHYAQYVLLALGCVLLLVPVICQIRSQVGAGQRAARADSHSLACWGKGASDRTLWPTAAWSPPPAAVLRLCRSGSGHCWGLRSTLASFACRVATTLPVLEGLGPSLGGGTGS
UniProt Q9H446: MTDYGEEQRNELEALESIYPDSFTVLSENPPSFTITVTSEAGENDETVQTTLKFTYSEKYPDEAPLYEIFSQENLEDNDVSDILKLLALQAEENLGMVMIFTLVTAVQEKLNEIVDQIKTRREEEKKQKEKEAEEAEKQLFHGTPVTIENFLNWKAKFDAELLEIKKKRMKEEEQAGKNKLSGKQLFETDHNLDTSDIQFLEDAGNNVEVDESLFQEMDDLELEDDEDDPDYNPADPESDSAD
UniProt Q9Y6U3: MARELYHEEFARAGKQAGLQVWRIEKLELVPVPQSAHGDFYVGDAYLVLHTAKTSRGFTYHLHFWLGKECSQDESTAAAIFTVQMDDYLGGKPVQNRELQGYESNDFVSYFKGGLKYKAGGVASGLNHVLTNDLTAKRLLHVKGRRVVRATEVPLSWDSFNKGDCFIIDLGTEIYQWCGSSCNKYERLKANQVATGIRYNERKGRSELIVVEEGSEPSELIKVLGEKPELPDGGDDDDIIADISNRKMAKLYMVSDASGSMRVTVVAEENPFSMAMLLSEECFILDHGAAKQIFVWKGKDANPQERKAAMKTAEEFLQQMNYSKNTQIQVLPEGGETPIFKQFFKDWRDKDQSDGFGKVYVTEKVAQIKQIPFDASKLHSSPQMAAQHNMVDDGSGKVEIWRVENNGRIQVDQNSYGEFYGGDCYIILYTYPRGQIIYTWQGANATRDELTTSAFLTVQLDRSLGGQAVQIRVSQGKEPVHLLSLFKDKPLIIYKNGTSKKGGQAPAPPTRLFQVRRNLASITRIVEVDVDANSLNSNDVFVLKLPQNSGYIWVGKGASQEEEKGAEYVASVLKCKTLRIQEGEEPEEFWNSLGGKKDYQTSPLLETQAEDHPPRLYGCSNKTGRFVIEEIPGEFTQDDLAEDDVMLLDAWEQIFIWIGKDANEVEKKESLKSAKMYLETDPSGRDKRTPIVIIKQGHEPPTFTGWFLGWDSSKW
UniProt Q9BRK5: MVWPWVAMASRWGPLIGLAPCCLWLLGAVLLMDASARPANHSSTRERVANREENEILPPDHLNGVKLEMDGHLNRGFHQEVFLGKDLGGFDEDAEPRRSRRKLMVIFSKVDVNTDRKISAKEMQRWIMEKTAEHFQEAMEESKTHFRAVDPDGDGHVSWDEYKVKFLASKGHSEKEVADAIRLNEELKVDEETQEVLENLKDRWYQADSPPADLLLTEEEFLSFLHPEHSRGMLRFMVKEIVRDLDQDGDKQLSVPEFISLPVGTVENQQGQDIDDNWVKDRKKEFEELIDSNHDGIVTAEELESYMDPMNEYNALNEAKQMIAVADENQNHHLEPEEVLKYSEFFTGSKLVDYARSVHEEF
UniProt O75880: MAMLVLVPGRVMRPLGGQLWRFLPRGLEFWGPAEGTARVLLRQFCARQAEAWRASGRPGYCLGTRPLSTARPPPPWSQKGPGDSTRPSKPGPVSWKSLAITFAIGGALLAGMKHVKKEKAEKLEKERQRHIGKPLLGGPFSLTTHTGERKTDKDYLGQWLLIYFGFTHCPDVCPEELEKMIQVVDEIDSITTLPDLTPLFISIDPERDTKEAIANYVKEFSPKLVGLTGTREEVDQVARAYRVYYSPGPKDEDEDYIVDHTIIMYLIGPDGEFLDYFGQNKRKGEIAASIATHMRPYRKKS
UniProt Q9NRP4: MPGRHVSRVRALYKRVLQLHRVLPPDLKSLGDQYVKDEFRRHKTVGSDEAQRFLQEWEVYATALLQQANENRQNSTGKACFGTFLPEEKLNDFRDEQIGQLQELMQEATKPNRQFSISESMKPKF
UniProt A3KN83: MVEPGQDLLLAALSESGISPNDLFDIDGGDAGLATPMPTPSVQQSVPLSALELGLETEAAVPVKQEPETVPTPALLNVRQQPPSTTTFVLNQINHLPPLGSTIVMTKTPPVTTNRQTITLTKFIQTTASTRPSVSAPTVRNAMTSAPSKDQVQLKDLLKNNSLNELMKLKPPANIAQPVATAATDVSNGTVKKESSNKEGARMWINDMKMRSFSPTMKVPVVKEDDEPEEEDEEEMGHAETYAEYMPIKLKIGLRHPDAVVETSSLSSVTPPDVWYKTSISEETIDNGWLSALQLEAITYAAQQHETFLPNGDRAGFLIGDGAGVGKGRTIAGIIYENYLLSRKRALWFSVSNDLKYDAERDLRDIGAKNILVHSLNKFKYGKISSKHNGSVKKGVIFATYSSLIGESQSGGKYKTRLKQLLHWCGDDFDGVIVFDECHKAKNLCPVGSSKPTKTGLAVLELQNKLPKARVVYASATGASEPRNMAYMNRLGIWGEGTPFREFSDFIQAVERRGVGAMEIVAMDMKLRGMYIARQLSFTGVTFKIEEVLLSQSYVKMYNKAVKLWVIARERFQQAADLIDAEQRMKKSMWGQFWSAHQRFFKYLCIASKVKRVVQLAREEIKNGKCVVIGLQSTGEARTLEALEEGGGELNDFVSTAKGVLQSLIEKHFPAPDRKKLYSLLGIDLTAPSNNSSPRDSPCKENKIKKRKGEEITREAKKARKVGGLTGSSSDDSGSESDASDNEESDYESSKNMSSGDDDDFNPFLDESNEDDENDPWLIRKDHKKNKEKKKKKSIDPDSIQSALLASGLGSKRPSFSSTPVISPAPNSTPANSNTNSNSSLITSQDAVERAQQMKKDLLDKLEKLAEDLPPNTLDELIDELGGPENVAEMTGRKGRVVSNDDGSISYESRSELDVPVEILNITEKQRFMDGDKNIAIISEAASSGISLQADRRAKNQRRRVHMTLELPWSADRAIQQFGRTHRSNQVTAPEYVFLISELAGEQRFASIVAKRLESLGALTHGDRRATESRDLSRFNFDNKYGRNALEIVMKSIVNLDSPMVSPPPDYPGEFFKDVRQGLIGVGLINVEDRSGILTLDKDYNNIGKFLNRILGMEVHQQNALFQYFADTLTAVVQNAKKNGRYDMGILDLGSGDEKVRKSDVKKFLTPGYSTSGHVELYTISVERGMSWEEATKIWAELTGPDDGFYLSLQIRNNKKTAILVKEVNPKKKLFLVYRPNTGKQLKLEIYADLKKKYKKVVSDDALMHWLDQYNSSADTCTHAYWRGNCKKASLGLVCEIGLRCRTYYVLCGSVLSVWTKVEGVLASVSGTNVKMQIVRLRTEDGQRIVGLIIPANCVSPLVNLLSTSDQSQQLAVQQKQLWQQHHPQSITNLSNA
UniProt Q96I15: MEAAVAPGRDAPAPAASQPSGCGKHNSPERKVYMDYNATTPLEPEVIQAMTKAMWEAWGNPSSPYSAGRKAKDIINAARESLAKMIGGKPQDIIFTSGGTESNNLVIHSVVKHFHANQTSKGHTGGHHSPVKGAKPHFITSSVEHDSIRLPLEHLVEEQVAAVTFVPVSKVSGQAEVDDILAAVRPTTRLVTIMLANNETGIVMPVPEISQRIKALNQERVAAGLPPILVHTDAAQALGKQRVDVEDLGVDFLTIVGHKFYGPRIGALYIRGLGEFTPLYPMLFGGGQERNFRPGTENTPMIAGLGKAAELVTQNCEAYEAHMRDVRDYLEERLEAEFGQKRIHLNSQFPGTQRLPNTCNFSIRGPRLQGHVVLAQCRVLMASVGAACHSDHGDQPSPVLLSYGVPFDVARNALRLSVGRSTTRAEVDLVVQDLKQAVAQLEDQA
UniProt Q969E2: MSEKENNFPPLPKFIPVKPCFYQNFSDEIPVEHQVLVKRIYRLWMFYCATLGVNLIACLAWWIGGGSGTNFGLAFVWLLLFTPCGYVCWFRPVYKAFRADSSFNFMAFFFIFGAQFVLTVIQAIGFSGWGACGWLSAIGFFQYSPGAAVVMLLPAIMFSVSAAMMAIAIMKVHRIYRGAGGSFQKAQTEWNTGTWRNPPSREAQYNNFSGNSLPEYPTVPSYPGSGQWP
UniProt Q14108: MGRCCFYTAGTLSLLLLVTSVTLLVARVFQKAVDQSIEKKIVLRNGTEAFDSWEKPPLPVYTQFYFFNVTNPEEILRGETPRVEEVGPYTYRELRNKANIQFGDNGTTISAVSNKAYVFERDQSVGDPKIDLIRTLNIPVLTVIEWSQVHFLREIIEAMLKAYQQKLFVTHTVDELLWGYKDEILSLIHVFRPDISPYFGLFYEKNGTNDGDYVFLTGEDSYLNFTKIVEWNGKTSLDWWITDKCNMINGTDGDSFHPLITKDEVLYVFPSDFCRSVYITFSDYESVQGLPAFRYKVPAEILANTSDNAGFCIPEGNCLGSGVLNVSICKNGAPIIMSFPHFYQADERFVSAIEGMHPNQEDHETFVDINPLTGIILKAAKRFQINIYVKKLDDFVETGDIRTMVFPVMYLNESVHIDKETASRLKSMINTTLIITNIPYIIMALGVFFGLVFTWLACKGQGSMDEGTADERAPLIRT
UniProt O94855: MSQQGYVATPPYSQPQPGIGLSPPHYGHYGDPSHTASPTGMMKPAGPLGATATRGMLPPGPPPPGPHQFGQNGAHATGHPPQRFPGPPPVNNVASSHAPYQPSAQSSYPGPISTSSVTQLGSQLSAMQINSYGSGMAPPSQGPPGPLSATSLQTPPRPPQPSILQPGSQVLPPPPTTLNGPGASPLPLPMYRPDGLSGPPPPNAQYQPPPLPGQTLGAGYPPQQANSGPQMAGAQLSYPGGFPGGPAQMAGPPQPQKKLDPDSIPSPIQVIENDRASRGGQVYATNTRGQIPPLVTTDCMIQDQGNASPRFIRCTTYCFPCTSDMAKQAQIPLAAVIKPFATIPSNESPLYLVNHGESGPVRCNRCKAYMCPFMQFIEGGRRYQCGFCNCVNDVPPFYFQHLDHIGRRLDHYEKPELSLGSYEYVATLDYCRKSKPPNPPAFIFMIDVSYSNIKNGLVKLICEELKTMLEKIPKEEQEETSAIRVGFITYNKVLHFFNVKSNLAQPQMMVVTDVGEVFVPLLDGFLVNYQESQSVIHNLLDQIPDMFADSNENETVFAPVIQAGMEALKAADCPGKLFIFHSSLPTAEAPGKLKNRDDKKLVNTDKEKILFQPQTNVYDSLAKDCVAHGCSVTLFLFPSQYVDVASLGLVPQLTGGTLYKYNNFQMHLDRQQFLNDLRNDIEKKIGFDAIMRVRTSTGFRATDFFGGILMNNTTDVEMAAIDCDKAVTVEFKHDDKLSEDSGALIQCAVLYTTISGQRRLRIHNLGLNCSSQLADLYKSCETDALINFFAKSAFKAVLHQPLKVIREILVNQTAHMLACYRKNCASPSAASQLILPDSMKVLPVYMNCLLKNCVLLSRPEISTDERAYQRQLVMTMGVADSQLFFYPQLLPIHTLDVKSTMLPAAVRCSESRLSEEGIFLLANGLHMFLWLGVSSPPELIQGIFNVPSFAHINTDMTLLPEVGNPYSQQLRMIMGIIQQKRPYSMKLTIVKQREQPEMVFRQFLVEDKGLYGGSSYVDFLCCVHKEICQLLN
UniProt Q9Y3B9: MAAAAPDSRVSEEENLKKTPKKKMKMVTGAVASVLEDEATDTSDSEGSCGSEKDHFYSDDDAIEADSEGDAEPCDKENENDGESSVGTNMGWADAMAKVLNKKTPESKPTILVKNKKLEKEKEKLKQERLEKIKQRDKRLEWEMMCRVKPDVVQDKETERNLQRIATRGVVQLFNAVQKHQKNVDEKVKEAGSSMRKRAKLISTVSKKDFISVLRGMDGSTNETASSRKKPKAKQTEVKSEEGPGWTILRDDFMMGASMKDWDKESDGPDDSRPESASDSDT
UniProt P31949: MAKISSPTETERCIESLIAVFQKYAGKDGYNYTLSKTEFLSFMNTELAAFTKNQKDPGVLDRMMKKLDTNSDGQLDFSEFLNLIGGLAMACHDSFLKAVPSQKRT
UniProt Q9UHR5: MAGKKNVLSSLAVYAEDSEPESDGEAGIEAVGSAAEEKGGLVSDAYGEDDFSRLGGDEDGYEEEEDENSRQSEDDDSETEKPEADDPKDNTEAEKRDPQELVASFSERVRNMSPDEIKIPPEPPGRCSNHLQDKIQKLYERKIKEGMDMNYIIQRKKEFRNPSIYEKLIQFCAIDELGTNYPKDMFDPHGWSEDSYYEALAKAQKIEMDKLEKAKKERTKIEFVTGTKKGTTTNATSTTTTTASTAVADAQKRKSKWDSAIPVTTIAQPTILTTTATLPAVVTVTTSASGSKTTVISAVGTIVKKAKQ

Compound in one assay: Cc1cccc(CC(=O)N2CCc3c2ccc(-c2cn(C)c4ncnc(N)c24)c3F)n1
Briefly: log2 fold change, soluble protein after heating vs DMSO (PISA); higher = thermal stabilisation; K562 cells, 10 uM, 30 min; active = over 0.2 and 3.5 SD of the protein, either way, in both replicates (recomputed). In short, it runs like this:
(§1)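 Values are thermal stability changes relative to control samples and are taken from duplicates. They are stated as log2 fold changes. Before quantification by TMTpro 16plex LC-MS/MS with equalised channel sums, K562 cells at 2×10^6 cells/mL were treated with 10 μM compound for 30 min, heated in aliquots for 3 min across 48°C-58°C, pooled, extracted in PBS with 0.5% NP-40 at 4°C, and centrifuged at 21,000xg for 90 min to give the soluble supernatant.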
As for SCFD2 (UniProt Q8WU76), the log2 fold change was inactive: 0.114.

Turning to SCARB1 isoform 2 (UniProt Q8WTV0), the log2 fold change is inactive: 0.003.

In the case of RWDD1 (UniProt Q9H446), the log2 fold change is inactive: 0.09.

Regarding SCIN (UniProt Q9Y6U3), the log2 fold change is inactive: 0.044.

Take SDF4 (UniProt Q9BRK5): the log2 fold change was inactive: 0.006.

As to RYBP (UniProt Q8N488), the log2 fold change was inactive: -0.06.

For the target SCO1 (UniProt O75880), the log2 fold change is inactive: -0.019.

Consider SACS (UniProt Q9NZJ4), for which the log2 fold change is inactive: -0.059.

Turning to RTRAF (UniProt Q9Y224), the log2 fold change was inactive: -0.032.

Regarding SCYL1 (UniProt Q96KG9), the log2 fold change is inactive: 0.008.

Turning to S100A6 (UniProt P06703), the log2 fold change was inactive: -0.094.

As to SDHA (UniProt P31040), the log2 fold change is inactive: 0.017.

Regarding RSBN1L (UniProt Q6PCB5), the log2 fold change was inactive: -0.08.

Take RUVBL1 (UniProt Q9Y265): the log2 fold change was inactive: -0.063.

With SDHAF3 (UniProt Q9NRP4), the log2 fold change is inactive: -0.092.

Take SBNO1 (UniProt A3KN83): the log2 fold change was inactive: 0.004.

SCLY (UniProt Q96I15): the log2 fold change was inactive: 0.014.

Take S100P (UniProt P25815): the log2 fold change was inactive: -0.068.

For SCP2 (UniProt P22307), the log2 fold change was inactive: -0.001.

For the target SCAMP4 (UniProt Q969E2), the log2 fold change is inactive: 0.102.

On to SCARB2 (UniProt Q14108), for which the log2 fold change is inactive: -0.064.

In the case of SCAP (UniProt Q12770), the log2 fold change was inactive: -0.058.

Turning to SEC24D isoform 2 (UniProt O94855), the log2 fold change was inactive: 0.058.

With RRP15 (UniProt Q9Y3B9), the log2 fold change is inactive: -0.074.

On to SBF1 isoform 4 (UniProt O95248), for which the log2 fold change is inactive: -0.117.

Regarding SARG (UniProt Q9BW04), the log2 fold change was inactive: 0.034.

Consider SAR1A (UniProt Q9NR31), for which the log2 fold change was inactive: 0.009.

On to S100A11 (UniProt P31949), for which the log2 fold change is inactive: -0.038.

Regarding SAP30BP (UniProt Q9UHR5), the log2 fold change is inactive: -0.014.

With SAR1B (UniProt Q9Y6B6), the log2 fold change is inactive: 0.003.

Compound in a further assay: Cc1cn(-c2cc(NC(=O)c3ccc(C)c(Nc4nccc(-c5cccnc5)n4)c3)cc(C(F)(F)F)c2)cn1 [nilotinib]
The description is as above. In short, it runs like this: as §1
With SCFD2 (UniProt Q8WU76), the log2 fold change was inactive: -0.013.

As to SCARB1 isoform 2 (UniProt Q8WTV0), the log2 fold change is inactive: 0.072.

Consider RWDD1 (UniProt Q9H446), for which the log2 fold change is inactive: -0.03.

Take SCIN (UniProt Q9Y6U3): the log2 fold change was inactive: -0.009.

As for SDF4 (UniProt Q9BRK5), the log2 fold change is inactive: -0.031.

As to RYBP (UniProt Q8N488), the log2 fold change is inactive: 0.107.

SCO1 (UniProt O75880): the log2 fold change is inactive: 0.005.

Consider SACS (UniProt Q9NZJ4), for which the log2 fold change was inactive: -0.093.

Turning to RTRAF (UniProt Q9Y224), the log2 fold change is inactive: 0.008.

In the case of SCYL1 (UniProt Q96KG9), the log2 fold change is inactive: -0.028.

S100A6 (UniProt P06703): the log2 fold change is inactive: 0.011.

Consider SDHA (UniProt P31040), for which the log2 fold change was inactive: 0.005.

For RSBN1L (UniProt Q6PCB5), the log2 fold change is inactive: 0.113.

Take RUVBL1 (UniProt Q9Y265): the log2 fold change is inactive: 0.112.

Turning to SDHAF3 (UniProt Q9NRP4), the log2 fold change is inactive: -0.051.

With SBNO1 (UniProt A3KN83), the log2 fold change was inactive: -0.004.

Turning to SCLY (UniProt Q96I15), the log2 fold change is inactive: 0.052.

For S100P (UniProt P25815), the log2 fold change was inactive: 0.034.

Consider SCP2 (UniProt P22307), for which the log2 fold change is inactive: 0.046.

For SCAMP4 (UniProt Q969E2), the log2 fold change was inactive: 0.039.

Regarding SCARB2 (UniProt Q14108), the log2 fold change is inactive: 0.047.

As for SCAP (UniProt Q12770), the log2 fold change is inactive: -0.033.

On to SEC24D isoform 2 (UniProt O94855), for which the log2 fold change was inactive: -0.019.

Take RRP15 (UniProt Q9Y3B9): the log2 fold change was inactive: 0.012.

Consider SBF1 isoform 4 (UniProt O95248), for which the log2 fold change was inactive: -0.041.

As to SARG (UniProt Q9BW04), the log2 fold change is inactive: 0.043.

As for SAR1A (UniProt Q9NR31), the log2 fold change was inactive: 0.127.

On to S100A11 (UniProt P31949), for which the log2 fold change was inactive: 0.029.

As to SAP30BP (UniProt Q9UHR5), the log2 fold change was inactive: 0.005.

For the target SAR1B (UniProt Q9Y6B6), the log2 fold change was inactive: 0.041.

Values taken from the supplement of paper PMC10849652.
